# PubChem BioAssay AID743121 | NCATS, 2013
# Screen: 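Knock-downs that sensitise breast cancer cells to camptothecin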 (primary screen)
# Cell system: MDA-MB-231 cells, a human breast cancer line
# Reagents: single siRNA against human genes, 20 nM siRNA (0.8 pmol per well)
# Time to read-out: 120 h (drug added 48 h after transfection, read 72 h later)
# Conditions: camptothecin 20 nM (about EC30) for 72 h; vehicle 0.1% DMSO in parallel plates
# Measurement: 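CellTiter-Glo ATP signal, scaled to control siRNA as percent viability; sensitisation given as log2 of untreated divided by camptothecin-treated viability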
# Scale: log2 vehicle/camptothecin viability: higher = stronger sensitisation to camptothecin; viability with camptothecin and viability without drug: higher = more viable cells
# Call rule: 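Active genes have an RSA gene-level p-value below 0.001, computed from the ratios of their separate siRNAs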
# This is a random part of about 26,000 reagents. Over the whole deposit, 167 (0.63%) were called active. 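Calls are per gene from RSA p-values that are not deposited; an individual active-marked siRNA can sensitise only weakly.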 Reagents against one gene are numbered here.
Gene,reagent no.,log2 vehicle/camptothecin viability,viability with camptothecin (% of control),viability without drug (% of control),Outcome
HCRT,1,-0.0185,105,104,inactive
HCRT,2,-0.4,78.2,59.2,inactive
HCRT,3,-0.0274,93.4,91.7,inactive
HCRT,4,0.0305,97,99.1,inactive
IL36R,1,-0.186,109,95.5,inactive
IL36R,2,-0.261,136,113,inactive
IL36R,3,-0.0892,118,111,inactive
IL36R,4,-0.419,99.5,74.4,inactive
MROH1,1,-0.0386,88.6,86.2,inactive
MROH1,2,-0.105,51.1,47.5,inactive
MROH1,3,-0.284,64,52.5,inactive
MROH1,4,-0.231,62.5,53.2,inactive
MROH1,5,-0.605,39.3,25.8,inactive
MROH1,6,-0.307,48.5,39.2,inactive
MROH1,7,-0.453,63.2,46.2,inactive
MROH1,8,0.232,30.6,35.9,inactive
LEPROTL1,1,-0.315,107,86.4,inactive
LEPROTL1,2,-0.368,86.7,67.2,inactive
LEPROTL1,3,-0.0809,83.7,79.1,inactive
LEPROTL1,4,-0.222,86.3,74,inactive
MTMR1,1,-0.182,85.2,75.1,inactive
MTMR1,2,-0.208,61.3,53.1,inactive
MTMR1,3,-0.179,71.2,62.9,inactive
MTMR1,4,0.167,91.4,103,inactive
EZR,1,-0.0967,73,68.3,inactive
EZR,2,-0.243,86.7,73.2,inactive
EZR,3,-0.179,72,63.6,inactive
RXFP3,1,0.641,71.3,111,inactive
RXFP3,2,0.0767,77.2,81.5,inactive
RXFP3,3,0.166,47.8,53.7,inactive
RXFP3,4,0.0373,92.4,94.8,inactive
ARHGEF10,1,0.0434,80.1,82.5,inactive
ARHGEF10,2,-0.0296,108,106,inactive
ARHGEF10,3,-0.0584,89.3,85.7,inactive
ARHGEF10,4,-0.0273,111,109,inactive
ANKIB1,1,-0.137,93.7,85.2,inactive
ANKIB1,2,-0.244,117,98.9,inactive
ANKIB1,3,-0.0341,108,106,inactive
ANKIB1,4,-0.0198,97.9,96.5,inactive
ACTR3,1,-0.402,61.1,46.2,inactive
ACTR3,2,-0.306,61,49.4,inactive
ACTR3,3,-0.28,93.7,77.2,inactive
ACTR3,4,-0.269,86.9,72.1,inactive
AGBL2,1,-0.295,43.6,35.5,inactive
AGBL2,2,-0.0984,84.2,78.6,inactive
AGBL2,3,0.207,83.6,96.5,inactive
AGBL2,4,-0.523,83.5,58.1,inactive
ZAN,1,-0.135,54.5,49.7,inactive
ZAN,2,0.224,76.2,88.9,inactive
ZAN,3,-0.324,59.4,47.5,inactive
ZAN,4,-0.312,77.6,62.5,inactive
MMD2,1,0.000184,112,112,inactive
MMD2,2,-0.134,85.4,77.8,inactive
MMD2,3,0.0455,90.9,93.8,inactive
MMD2,4,0.385,64.4,84.2,inactive
SLC25A6,1,-0.545,100,68.6,inactive
SLC25A6,2,0.208,79,91.2,inactive
SLC25A6,3,-0.577,98.2,65.8,inactive
SLC25A6,4,0.229,74.3,87,inactive
LTBR,1,0.0508,65.2,67.5,inactive
LTBR,2,-0.112,96.7,89.5,inactive
LTBR,3,-0.503,77.9,55,inactive
LTBR,4,-0.279,52.7,43.5,inactive
ITGB4,1,-0.215,66.7,57.5,inactive
ITGB4,2,-0.319,44.9,36,inactive
ITGB4,3,-0.157,105,94.2,inactive
ITGB4,4,-0.471,93.7,67.6,inactive
ATP2A2,1,-0.366,60.6,47,inactive
ATP2A2,2,-0.197,94.4,82.4,inactive
ATP2A2,3,0.295,35.2,43.2,inactive
ATP2A2,4,-0.357,118,92.5,inactive

10 entries already listed, sorted by “viability without drug (% of control)”, ascending.
Gene,reagent no.,log2 vehicle/camptothecin viability,viability with camptothecin (% of control),viability without drug (% of control),Outcome
AGBL2,1,-0.295,43.6,35.5,inactive
ACTR3,1,-0.402,61.1,46.2,inactive
ACTR3,2,-0.306,61,49.4,inactive
ACTR3,4,-0.269,86.9,72.1,inactive
ACTR3,3,-0.28,93.7,77.2,inactive
ANKIB1,1,-0.137,93.7,85.2,inactive
ANKIB1,4,-0.0198,97.9,96.5,inactive
ANKIB1,2,-0.244,117,98.9,inactive
ANKIB1,3,-0.0341,108,106,inactive
ARHGEF10,4,-0.0273,111,109,inactive
